According to the supplement of paper PMC10849652:
The other results are listed elsewhere or left out.

By UniProt entry, the sequences of proteins in these tests, tags left out. Where a name states a change or a piece, a line headed by the entry shows the natural chain unless it says otherwise.
UniProt Q9UBQ7: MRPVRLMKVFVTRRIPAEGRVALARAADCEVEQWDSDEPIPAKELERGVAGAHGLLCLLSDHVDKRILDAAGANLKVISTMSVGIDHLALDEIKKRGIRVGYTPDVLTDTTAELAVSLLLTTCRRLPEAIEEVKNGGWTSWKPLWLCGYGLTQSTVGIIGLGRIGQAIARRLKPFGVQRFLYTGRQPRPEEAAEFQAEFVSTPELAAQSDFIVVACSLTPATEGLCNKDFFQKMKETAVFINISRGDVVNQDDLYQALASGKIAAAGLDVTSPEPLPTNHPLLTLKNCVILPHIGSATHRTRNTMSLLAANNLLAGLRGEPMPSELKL
UniProt P62873, whole entry, looked up: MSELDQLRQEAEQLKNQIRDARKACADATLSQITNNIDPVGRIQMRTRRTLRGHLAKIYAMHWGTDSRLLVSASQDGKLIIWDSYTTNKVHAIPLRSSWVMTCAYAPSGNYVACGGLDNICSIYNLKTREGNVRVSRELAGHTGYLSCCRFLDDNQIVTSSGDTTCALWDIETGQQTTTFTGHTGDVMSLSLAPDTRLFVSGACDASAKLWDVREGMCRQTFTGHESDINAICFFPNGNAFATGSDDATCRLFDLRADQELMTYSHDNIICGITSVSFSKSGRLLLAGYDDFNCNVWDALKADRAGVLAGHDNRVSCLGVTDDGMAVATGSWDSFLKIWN
UniProt Q9P2T1: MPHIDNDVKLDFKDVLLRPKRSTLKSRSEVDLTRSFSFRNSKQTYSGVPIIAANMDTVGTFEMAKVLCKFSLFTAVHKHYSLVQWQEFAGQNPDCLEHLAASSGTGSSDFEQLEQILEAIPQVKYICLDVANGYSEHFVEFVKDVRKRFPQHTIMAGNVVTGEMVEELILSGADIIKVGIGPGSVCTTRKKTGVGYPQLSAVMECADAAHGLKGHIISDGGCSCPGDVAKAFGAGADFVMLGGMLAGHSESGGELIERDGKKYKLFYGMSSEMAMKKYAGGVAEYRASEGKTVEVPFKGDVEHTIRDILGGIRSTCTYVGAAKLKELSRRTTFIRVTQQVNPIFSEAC
UniProt P04899, whole entry, looked up: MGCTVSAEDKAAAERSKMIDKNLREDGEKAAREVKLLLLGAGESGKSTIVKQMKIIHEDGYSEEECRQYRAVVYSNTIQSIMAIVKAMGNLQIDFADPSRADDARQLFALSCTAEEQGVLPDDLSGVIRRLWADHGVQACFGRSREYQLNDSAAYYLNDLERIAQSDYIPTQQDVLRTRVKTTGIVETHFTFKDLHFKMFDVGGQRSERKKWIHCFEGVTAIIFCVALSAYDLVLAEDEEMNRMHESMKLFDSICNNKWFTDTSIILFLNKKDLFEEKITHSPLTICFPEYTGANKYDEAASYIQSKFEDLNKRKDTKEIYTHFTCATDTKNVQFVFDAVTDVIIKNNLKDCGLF
UniProt O75496: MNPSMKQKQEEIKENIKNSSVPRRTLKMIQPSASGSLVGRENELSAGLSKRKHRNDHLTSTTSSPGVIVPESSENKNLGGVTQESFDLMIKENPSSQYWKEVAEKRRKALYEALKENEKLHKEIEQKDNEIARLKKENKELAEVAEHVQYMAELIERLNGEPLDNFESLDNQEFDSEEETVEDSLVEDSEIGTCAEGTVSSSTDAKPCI
UniProt Q14344, whole entry, looked up: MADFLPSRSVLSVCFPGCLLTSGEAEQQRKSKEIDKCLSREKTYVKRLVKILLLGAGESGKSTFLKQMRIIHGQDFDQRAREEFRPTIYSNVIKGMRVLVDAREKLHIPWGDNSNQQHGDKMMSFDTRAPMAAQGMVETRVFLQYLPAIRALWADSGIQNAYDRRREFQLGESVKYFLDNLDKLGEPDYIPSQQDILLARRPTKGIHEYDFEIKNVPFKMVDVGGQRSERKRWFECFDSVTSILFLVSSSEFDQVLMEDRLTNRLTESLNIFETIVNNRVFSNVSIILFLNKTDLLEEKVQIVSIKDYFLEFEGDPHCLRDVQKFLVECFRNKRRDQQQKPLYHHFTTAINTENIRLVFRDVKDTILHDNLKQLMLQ
UniProt Q53EU6: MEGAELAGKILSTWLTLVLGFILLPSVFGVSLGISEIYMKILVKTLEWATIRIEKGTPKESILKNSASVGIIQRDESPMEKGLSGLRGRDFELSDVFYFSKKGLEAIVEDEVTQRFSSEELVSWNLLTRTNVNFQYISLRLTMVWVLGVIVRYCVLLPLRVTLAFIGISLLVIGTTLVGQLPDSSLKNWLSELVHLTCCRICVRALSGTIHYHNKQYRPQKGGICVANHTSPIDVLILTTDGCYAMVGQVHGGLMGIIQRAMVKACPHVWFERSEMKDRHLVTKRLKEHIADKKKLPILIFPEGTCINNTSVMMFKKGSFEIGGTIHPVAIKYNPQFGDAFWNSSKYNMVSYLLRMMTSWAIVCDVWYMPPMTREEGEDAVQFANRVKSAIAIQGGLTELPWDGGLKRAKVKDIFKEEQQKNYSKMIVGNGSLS
UniProt Q8IW92: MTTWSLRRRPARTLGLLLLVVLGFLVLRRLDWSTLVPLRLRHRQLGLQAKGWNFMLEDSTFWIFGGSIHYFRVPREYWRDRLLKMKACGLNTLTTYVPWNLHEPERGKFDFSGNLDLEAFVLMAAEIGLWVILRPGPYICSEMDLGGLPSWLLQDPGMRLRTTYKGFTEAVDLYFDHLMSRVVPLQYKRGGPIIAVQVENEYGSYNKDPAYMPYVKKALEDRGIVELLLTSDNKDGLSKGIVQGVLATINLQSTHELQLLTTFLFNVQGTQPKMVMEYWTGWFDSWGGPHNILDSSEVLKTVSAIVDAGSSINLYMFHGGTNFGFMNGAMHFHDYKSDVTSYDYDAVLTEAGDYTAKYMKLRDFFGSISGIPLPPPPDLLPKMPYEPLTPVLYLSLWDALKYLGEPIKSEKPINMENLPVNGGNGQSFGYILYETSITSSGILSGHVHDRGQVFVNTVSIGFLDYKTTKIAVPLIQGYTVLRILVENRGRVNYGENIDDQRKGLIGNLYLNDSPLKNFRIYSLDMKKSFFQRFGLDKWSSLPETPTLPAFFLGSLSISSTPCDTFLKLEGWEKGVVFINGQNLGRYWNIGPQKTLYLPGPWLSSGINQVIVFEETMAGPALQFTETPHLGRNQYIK
UniProt Q8WWB7: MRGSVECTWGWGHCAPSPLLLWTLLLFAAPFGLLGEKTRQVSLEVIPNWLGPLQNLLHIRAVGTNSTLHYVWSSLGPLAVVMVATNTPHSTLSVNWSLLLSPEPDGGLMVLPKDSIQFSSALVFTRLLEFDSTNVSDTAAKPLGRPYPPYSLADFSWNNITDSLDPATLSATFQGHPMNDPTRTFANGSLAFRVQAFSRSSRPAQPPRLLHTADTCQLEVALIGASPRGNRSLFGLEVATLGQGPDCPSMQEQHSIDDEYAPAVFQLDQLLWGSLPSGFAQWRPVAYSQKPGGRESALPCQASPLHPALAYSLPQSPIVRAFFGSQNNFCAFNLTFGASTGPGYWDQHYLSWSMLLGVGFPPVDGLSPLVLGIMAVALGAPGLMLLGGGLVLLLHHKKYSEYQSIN
UniProt P60983, whole entry, looked up: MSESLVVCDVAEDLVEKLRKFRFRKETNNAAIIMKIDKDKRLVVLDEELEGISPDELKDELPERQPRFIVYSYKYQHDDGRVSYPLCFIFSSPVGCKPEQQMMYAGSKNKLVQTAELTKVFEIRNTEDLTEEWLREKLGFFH
UniProt O60234, whole entry, looked up: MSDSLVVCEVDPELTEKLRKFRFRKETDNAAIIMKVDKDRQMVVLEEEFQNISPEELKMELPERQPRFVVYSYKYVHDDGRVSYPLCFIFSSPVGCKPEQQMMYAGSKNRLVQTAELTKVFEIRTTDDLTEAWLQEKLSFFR
UniProt Q3T8J9: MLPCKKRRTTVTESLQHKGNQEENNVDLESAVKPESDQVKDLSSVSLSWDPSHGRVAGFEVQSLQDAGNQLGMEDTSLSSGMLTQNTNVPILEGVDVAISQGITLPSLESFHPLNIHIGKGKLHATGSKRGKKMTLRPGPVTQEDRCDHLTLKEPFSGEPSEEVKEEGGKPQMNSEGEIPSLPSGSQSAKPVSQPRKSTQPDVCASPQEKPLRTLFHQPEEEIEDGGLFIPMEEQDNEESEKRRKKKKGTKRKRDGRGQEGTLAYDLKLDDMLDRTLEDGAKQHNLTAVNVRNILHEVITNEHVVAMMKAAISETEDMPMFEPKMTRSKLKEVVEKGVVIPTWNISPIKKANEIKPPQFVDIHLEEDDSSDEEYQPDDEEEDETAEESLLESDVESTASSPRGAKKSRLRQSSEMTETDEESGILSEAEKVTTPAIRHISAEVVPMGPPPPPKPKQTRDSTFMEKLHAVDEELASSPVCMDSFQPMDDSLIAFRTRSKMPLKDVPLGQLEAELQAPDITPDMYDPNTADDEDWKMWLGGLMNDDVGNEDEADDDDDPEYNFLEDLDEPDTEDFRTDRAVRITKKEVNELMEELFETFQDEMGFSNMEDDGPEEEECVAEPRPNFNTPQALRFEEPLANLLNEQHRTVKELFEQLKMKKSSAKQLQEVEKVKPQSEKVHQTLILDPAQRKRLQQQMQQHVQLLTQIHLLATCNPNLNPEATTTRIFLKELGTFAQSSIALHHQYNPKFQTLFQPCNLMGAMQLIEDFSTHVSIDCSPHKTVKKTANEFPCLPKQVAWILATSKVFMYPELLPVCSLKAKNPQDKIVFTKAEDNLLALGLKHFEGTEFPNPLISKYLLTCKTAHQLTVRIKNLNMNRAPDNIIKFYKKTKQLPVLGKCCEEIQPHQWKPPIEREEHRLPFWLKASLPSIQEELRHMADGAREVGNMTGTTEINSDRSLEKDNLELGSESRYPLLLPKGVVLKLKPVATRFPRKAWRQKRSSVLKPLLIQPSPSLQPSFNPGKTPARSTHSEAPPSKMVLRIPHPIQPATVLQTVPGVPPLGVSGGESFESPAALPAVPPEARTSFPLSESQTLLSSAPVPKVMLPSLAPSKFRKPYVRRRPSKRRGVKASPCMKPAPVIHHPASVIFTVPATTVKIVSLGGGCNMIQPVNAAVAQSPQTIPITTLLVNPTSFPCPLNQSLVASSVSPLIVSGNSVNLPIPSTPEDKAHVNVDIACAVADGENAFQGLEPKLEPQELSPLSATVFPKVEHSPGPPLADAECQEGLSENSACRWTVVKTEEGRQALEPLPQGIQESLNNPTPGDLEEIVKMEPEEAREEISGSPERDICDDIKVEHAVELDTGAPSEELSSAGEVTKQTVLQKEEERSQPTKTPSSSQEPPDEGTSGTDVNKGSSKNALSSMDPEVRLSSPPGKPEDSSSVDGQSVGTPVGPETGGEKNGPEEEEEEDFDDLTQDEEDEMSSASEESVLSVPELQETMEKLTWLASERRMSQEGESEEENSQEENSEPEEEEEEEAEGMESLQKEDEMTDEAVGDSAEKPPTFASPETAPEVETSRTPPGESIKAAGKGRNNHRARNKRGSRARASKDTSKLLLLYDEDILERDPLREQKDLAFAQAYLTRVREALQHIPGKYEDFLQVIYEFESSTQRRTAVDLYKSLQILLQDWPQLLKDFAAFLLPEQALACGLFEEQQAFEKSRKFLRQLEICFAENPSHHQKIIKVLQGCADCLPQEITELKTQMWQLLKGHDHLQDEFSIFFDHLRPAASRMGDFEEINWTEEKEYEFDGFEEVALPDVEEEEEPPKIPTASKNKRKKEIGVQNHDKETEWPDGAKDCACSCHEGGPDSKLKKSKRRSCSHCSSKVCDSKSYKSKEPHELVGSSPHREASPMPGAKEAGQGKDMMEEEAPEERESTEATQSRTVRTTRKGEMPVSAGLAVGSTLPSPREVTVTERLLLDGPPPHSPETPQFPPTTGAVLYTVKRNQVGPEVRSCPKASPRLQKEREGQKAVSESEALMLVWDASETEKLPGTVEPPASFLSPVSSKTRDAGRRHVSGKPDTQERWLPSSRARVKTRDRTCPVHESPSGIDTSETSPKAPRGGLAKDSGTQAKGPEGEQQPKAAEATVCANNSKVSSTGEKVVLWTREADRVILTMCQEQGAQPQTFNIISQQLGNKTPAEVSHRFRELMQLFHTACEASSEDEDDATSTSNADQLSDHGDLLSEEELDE
UniProt Q92990: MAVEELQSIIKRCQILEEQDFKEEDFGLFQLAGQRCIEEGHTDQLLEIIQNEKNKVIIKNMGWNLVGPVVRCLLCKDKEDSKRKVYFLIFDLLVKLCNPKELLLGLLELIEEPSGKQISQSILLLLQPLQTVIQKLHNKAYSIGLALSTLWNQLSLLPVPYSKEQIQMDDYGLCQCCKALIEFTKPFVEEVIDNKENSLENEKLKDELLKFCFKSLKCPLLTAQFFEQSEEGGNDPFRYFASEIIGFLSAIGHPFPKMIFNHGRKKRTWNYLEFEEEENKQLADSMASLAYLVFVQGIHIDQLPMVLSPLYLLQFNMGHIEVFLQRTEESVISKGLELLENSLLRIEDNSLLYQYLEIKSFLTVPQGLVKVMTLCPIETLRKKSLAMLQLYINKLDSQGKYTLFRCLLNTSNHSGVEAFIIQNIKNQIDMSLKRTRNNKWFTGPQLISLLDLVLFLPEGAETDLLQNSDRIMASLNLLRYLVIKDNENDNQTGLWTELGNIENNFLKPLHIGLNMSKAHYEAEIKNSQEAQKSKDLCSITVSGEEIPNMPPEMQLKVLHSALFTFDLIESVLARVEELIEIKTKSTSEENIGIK

Assays:
Test in all cases: log2 fold change, soluble protein after heating vs DMSO (PISA); higher = thermal stabilisation; K562 cells, 10 uM, 30 min; active = over 0.2 and 3.5 SD of the protein, either way, in both replicates (recomputed)
[1] = compound: CS(=O)(=O)c1ccc(-c2cnc(N)c(C(=O)Nc3ccccc3)n2)cc1
In short: (§1)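 Quantification of soluble protein used TMTpro 16plex LC-MS/MS, with channel sums equalised. Samples were the supernatant after 21,000xg for 90 min of pooled aliquots from K562 cells (2×10^6 cells/mL) treated with 10 μM compound for 30 min, heated for 3 min over 48°C-58°C, and extracted in PBS with 0.5% NP-40 at 4°C. Values, from duplicates, describe thermal stability against control samples on a log2 fold-change scale.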

[2] = compound: C[C@@H](Oc1cc(-c2cnn(C3CCNCC3)c2)cnc1N)c1c(Cl)ccc(F)c1Cl [crizotinib]
In short: as §1

[3] = compound: C[C@@H]1COCCN1C2=NC(=NC(=C2)C3(CC3)S(=O)(=O)C)C4=C5C=CNC5=CC=C4
In short: as §1

[4] = compound: C[C@H](C1=CC=C(C=C1)C(=O)NC2=C3C=CNC3=NC=C2)N
In short: as §1

[5] = compound: C[C@H](Nc1ncnc2nc[nH]c12)c1cc2cccc(Cl)c2c(=O)n1-c1ccccc1 [duvelisib]
In short: as §1

[6] = compound: Cc1cc(Nc2cc(CN3CCOCC3)c3nc(C)c(Cc4ccc(Cl)cc4F)n3n2)n[nH]1 [gandotinib]
In short: as §1

[7] = compound: Cc1cc(Nc2cc(N3CCN(C)CC3)nc(Sc3ccc(NC(=O)C4CC4)cc3)n2)n[nH]1 [tozasertib]
In short: as §1

[8] = compound: Cc1cc(SCc2sc(-c3ccc(C(F)(F)F)cc3)nc2C)ccc1OCC(=O)O
In short: as §1

[9] = compound: Cc1ccc(-n2nc(C(C)(C)C)cc2NC(=O)Nc2ccc(OCCN3CCOCC3)c3ccccc23)cc1 [doramapimod]
In short: as §1

[10] = compound: Cc1ccc(C(=O)N(CCCN)[C@@H](c2nc3cc(Cl)ccc3c(=O)n2Cc2ccccc2)C(C)C)cc1 [ispinesib]
In short: as §1

Measured: log2 fold change

GRN (UniProt P28799)
inactive: [1] -0.033 | [2] 0.051 | [3] 0.025 | [4] -0.01 | [5] 0.074 | [6] 0.004 | [7] -0.022 | [8] -0.077 | [9] 0.067 | [10] -0.058

GMDS (UniProt O60547)
inactive: [1] 0.023 | [2] 0.017 | [3] 0.093 | [4] -0.022 | [5] 0.037 | [6] -0.031 | [7] -0.022 | [8] -0.024 | [9] -0.008 | [10] -0.006

GRK2 (UniProt P25098)
inactive: [1] -0.018 | [2] -0.059 | [3] 0.069 | [4] 0 | [5] 0.027 | [6] -0.014 | [7] -0.032 | [8] 0.021 | [9] 0.007 | [10] 0.01

GRHPR (UniProt Q9UBQ7)
inactive: [1] 0.025 | [2] -0.021 | [3] 0.069 | [4] -0.048 | [5] 0.037 | [6] -0.007 | [7] 0.011 | [8] -0.005 | [9] 0.015 | [10] 0.08

GPALPP1 (UniProt Q8IXQ4)
inactive: [1] 0.015 | [2] 0.029 | [3] 0.018 | [4] -0.07 | [5] 0.032 | [6] 0.037 | [7] -0.02 | [8] -0.058 | [9] 0 | [10] 0.053

GNB1 (UniProt P62873)
inactive: [1] 0.007 | [2] 0.099 | [3] 0.013 | [4] -0.124 | [5] 0.095 | [6] -0.068 | [7] 0.016 | [8] 0.113 | [9] -0.004 | [10] 0.112

GMPR2 isoform 2 (UniProt Q9P2T1)
inactive: [1] 0.018 | [2] 0.084 | [3] 0.038 | [4] -0.094 | [5] 0.048 | [6] 0.027 | [7] -0.036 | [8] -0.053 | [9] -0.032 | [10] 0.018

GPHN isoform 2 (UniProt Q9NQX3)
inactive: [1] 0.002 | [2] 0.014 | [3] -0.002 | [4] 0.001 | [5] 0.031 | [6] 0.085 | [7] -0.037 | [8] -0.014 | [9] 0.004 | [10] 0.035

GRB2 (UniProt P62993)
inactive: [1] -0.047 | [2] 0.042 | [3] -0.037 | [4] -0.074 | [5] -0.021 | [6] -0.001 | [7] -0.001 | [8] -0.031 | [9] -0.008 | [10] 0.021

GNAI2 isoform 4 (UniProt P04899)
inactive: [1] 0.073 | [2] 0.113 | [3] 0.034 | [4] -0.081 | [5] 0.082 | [6] -0.013 | [7] 0.015 | [8] 0.011 | [9] -0.017 | [10] 0.001

GOLT1B (UniProt Q9Y3E0)
inactive: [1] -0.041 | [2] 0.003 | [3] 0.022 | [4] -0.029 | [5] 0.004 | [6] -0.106 | [7] 0.019 | [8] -0.07 | [9] -0.029 | [10] -0.016

GLOD4 isoform 2 (UniProt Q9HC38)
inactive: [1] 0.06 | [2] -0.064 | [3] 0.074 | [4] -0.05 | [5] 0.035 | [6] -0.054 | [7] -0.008 | [8] 0.035 | [9] 0.006 | [10] -0.05

GMNN (UniProt O75496)
inactive: [1] -0.013 | [2] 0.021 | [3] -0.015 | [4] -0.018 | [5] 0.019 | [6] -0.04 | [7] -0.013 | [8] -0.041 | [9] -0.009 | [10] 0.002

GNA13 (UniProt Q14344)
inactive: [1] 0.027 | [2] 0.118 | [3] 0.065 | [4] -0.111 | [5] 0.082 | [6] -0.063 | [7] -0.029 | [8] -0.006 | [9] 0.001 | [10] 0.064

GNB1L (UniProt Q9BYB4)
inactive: [1] 0.016 | [2] 0.013 | [3] 0.016 | [4] -0.063 | [5] 0.031 | [6] -0.036 | [7] -0.008 | [8] -0.013 | [9] -0.031 | [10] 0.009

GPAA1 (UniProt O43292)
inactive: [1] 0.02 | [2] -0.026 | [3] 0.02 | [4] -0.027 | [5] 0.032 | [6] -0.203 | [7] 0.049 | [8] 0.019 | [9] 0.046 | [10] -0.012

GPAT3 (UniProt Q53EU6)
inactive: [1] 0.039 | [2] 0.166 | [3] -0.02 | [4] 0 | [5] 0.019 | [7] 0.012 | [8] -0.006 | [9] 0.059 | [10] 0.19

GMPS (UniProt P49915)
inactive: [1] 0.022 | [2] -0.119 | [3] 0.102 | [4] -0.033 | [5] 0.006 | [6] -0.125 | [7] -0.054 | [8] 0.015 | [9] 0.002 | [10] -0.006

GPATCH11 (UniProt Q8N954)
inactive: [1] -0.016 | [2] -0.001 | [3] -0.058 | [4] 0.039 | [5] 0.089 | [6] 0.041 | [7] 0.046 | [8] 0.014 | [9] 0.02 | [10] -0.043

GLB1L2 (UniProt Q8IW92)
inactive: [1] 0.05 | [2] 0.026 | [3] 0.069 | [4] 0.118 | [5] -0.014 | [6] -0.114 | [7] -0.045 | [8] 0.027 | [9] -0.021 | [10] -0.043

GOT2 (UniProt P00505)
inactive: [1] 0.018 | [2] 0.056 | [3] -0.011 | [4] -0.102 | [5] 0.004 | [6] 0.046 | [7] -0.004 | [8] -0.02 | [9] -0.048 | [10] 0.013

Random excerpt: 2 entries already listed.
GOT2 (UniProt P00505)
inactive: [1] 0.018 | [2] 0.056 | [3] -0.011 | [4] -0.102 | [5] 0.004 | [6] 0.046 | [7] -0.004 | [8] -0.02 | [9] -0.048 | [10] 0.013

GPATCH11 (UniProt Q8N954)
inactive: [1] -0.016 | [2] -0.001 | [3] -0.058 | [4] 0.039 | [5] 0.089 | [6] 0.041 | [7] 0.046 | [8] 0.014 | [9] 0.02 | [10] -0.043

The results go on:

GLMP (UniProt Q8WWB7)
inactive: [1] 0.049 | [2] 0.178 | [3] 0.017 | [4] 0.075 | [5] 0.001 | [7] 0.012 | [8] 0.058 | [9] -0.089 | [10] 0.079

GPD2 (UniProt P43304)
inactive: [1] 0.023 | [2] 0.062 | [3] -0.009 | [4] -0.021 | [5] -0.004 | [6] -0.004 | [7] -0.042 | [8] -0.03 | [9] -0.038 | [10] 0.099

GMFB (UniProt P60983)
inactive: [1] -0.013 | [2] 0.056 | [3] 0.083 | [4] -0.065 | [5] 0.024 | [6] 0.067 | [7] -0.008 | [8] -0.013 | [9] -0.044 | [10] 0.107

GMFG (UniProt O60234)
inactive: [1] 0.005 | [2] 0.041 | [3] 0.01 | [4] -0.07 | [5] -0.012 | [6] -0.036 | [7] 0.059 | [8] -0.062 | [9] -0.015 | [10] 0.049

GON4L (UniProt Q3T8J9)
inactive: [1] -0.021 | [2] 0.068 | [3] 0.042 | [4] 0.047 | [5] 0.056 | [7] -0.057 | [8] -0.189 | [9] -0.023

GRWD1 (UniProt Q9BQ67)
inactive: [1] -0.024 | [2] 0.063 | [3] -0.398 | [4] 0.376 | [5] -0.178 | [6] 0.215 | [7] 0.085 | [8] 0.065 | [9] 0.13 | [10] -0.094

GPBP1 isoform 2 (UniProt Q86WP2)
inactive: [1] 0.013 | [2] 0.007 | [3] 0.005 | [4] 0.096 | [5] -0.013 | [6] 0.052 | [7] 0.085 | [8] 0.008 | [9] 0.008 | [10] -0.032

GRAP2 (UniProt O75791)
inactive: [1] -0.047 | [2] -0.042 | [3] -0.015 | [4] 0.1 | [5] 0.091 | [6] -0.027 | [7] -0.035 | [8] 0.172 | [9] -0.18 | [10] -0.066

GLMN (UniProt Q92990)
inactive: [1] 0.038 | [2] -0.018 | [3] 0.027 | [4] -0.009 | [5] 0.001 | [6] 0.007 | [7] -0.011 | [8] -0.021 | [9] -0.007 | [10] 0.014
